No constants are given. Whether binding was seen depends on the method and setting. For some assays here: In cells and extracts the contact can be indirect. Some entries that bind do so weakly or less than the wild type. For some assays here: Sequences can lack the tags named with a protein.
What was measured:
[1] = biological target: T1, GST-ORF6-C, purified (SARS-CoV-2) (UniProt P0DTC6); assay: pull-down; GST pull-down: 1 µg GST-tagged protein with 1 µg His-tagged caspase-8-C/A in 250 µL NP-40 lysis buffer, 4 h at 4 °C, Glutathione Resin overnight; washes with 1% NP-40, 500 mM NaCl, 50 mM HEPES pH 7.5; both purified
T1 sequence: SLTENKYSQLDEEQPMEID

Amino acid sequences for entries named in this document (tags omitted). A change or cut given only in a name is not applied to a line headed by its entry. Chains listed by the source or under a name are the forms on record and can include a tag or linker. Residues count along the entry.
UniProt P0DTC6: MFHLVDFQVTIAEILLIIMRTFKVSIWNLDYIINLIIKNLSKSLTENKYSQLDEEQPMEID
UniProt Q9Y572: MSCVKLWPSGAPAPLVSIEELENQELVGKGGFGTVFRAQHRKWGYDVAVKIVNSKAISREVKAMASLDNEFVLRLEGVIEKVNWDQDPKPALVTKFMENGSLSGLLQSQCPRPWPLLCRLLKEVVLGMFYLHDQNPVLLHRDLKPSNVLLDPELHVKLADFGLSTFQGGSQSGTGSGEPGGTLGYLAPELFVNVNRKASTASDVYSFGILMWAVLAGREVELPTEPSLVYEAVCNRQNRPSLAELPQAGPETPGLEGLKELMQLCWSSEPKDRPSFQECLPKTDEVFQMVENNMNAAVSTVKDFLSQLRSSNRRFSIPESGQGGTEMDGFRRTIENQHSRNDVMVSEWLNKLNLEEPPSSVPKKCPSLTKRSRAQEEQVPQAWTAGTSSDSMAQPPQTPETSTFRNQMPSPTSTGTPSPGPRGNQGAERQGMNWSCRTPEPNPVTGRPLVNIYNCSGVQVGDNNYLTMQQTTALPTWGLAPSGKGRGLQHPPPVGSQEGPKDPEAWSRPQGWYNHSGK
UniProt Q14790: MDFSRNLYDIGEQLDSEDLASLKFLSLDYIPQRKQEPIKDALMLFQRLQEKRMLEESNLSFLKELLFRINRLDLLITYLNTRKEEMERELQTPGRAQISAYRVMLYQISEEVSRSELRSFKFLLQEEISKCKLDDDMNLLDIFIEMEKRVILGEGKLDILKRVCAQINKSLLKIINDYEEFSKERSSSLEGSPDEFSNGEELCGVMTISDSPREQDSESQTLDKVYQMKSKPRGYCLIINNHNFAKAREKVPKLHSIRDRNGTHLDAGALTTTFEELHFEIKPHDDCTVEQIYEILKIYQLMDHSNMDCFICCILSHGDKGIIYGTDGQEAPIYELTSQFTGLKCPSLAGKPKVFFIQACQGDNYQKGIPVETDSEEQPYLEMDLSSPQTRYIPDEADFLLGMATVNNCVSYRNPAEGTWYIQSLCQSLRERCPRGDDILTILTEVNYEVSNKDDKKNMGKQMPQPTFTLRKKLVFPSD
His-tagged caspase-8-C/A, purified (Q14790, form named): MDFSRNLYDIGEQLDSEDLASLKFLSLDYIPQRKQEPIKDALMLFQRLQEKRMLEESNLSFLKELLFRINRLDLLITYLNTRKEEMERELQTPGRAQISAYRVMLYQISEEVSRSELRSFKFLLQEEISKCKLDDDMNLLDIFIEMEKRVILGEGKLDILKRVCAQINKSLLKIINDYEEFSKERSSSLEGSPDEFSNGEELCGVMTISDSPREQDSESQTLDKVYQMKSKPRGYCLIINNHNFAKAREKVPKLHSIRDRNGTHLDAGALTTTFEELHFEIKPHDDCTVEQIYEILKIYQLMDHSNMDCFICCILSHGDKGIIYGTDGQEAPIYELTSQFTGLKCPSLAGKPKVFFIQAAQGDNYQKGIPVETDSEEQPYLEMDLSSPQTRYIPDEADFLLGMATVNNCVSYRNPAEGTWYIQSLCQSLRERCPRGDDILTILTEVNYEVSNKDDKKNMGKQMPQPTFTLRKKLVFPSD
UniProt P0C6X6, residues 5298-5900: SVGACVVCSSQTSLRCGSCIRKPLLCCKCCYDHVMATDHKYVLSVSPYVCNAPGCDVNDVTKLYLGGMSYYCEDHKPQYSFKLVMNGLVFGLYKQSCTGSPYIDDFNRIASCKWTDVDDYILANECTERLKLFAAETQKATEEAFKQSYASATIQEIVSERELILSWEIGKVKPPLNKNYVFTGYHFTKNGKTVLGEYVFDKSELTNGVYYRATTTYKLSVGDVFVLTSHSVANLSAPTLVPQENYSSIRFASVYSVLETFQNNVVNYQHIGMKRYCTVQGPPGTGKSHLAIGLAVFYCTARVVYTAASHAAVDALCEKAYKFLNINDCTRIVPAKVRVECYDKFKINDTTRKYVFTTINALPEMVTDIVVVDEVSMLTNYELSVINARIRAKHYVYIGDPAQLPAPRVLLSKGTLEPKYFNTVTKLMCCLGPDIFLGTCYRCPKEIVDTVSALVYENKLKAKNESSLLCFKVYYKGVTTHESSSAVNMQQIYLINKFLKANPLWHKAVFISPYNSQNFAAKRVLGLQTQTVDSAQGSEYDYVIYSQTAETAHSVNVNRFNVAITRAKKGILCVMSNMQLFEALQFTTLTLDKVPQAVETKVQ

[2] = biological target: RIPK3 in HT29-ZBP1 inducible cell lines (human (endogenous in HT29)) (UniProt Q9Y572); assay: co-IP; HT29-ZBP1 inducible stable cell lines with or without inducible NSP13 (SARS2, OC43 or SARS2-delRHIM), 500 ng/mL Dox plus zVAD for 20 h; Flag IP, RIPK3 IP or ZBP1 IP; NP-40 lysis buffer

Substance | binding [1] | binding [2]
His-tagged caspase-8-C/A, purified (from UniProt Q14790 1-479) (enzyme) | binds | 
NSP13 from hCoV-OC43, Dox-inducible in HT29-ZBP1-OC43-NSP13 cells (from UniProt P0C6X6 5298-5900) (enzyme) |  | binds
